Laboratory results from PMC4451736.
These are yes or no findings as the source states them, for the method shown. A result given as binding can be weak or reduced; the word gives no strength. Values belong to the molecule of their own block, whether it stands above or below them.

Key:
[1] = molecular target: T1, ARF5CTD (residues 767-901 of ARF5, bait in pDHB1) (Arabidopsis) (UniProt P93024); test: two-hybrid; split-ubiquitin system in yeast NMY51; ARF5CTD in bait vector pDHB1, PtrIAA14.1 in prey vector pPR3-N; growth on SD-trp-leu-his; empty bait and empty prey as controls
T1 sequence: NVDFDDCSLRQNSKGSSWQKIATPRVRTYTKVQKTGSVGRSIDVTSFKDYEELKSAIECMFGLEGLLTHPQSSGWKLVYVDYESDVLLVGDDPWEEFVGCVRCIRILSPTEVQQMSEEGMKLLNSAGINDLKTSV

[2] = molecular target: GD-PtrIAA14.1CTD (residues 131-248 of PtrIAA14.1 fused to the GAL4 DNA binding domain) (Populus trichocarpa); test: two-hybrid; Arabidopsis protoplast transfection; GD-PtrIAA14.1CTD cotransfected with ARF activators and the Gal4:GUS reporter; GUS activity after 20-22 h; CAT as control

binding [1]: binds
Molecule: PtrIAA14.1 (full-length, prey in pPR3-N) (Populus trichocarpa)

B1: ARF5 (effector in protoplasts) (protein, UniProt P93024 1-902)
chain: MMASLSCVEDKMKTSCLVNGGGTITTTTSQSTLLEEMKLLKDQSGTRKPVINSELWHACAGPLVCLPQVGSLVYYFSQGHSEQVAVSTRRSATTQVPNYPNLPSQLMCQVHNVTLHADKDSDEIYAQMSLQPVHSERDVFPVPDFGMLRGSKHPTEFFCKTLTASDTSTHGGFSVPRRAAEKLFPPLDYSAQPPTQELVVRDLHENTWTFRHIYRGQPKRHLLTTGWSLFVGSKRLRAGDSVLFIRDEKSQLMVGVRRANRQQTALPSSVLSADSMHIGVLAAAAHATANRTPFLIFYNPRACPAEFVIPLAKYRKAICGSQLSVGMRFGMMFETEDSGKRRYMGTIVGISDLDPLRWPGSKWRNLQVEWDEPGCNDKPTRVSPWDIETPESLFIFPSLTSGLKRQLHPSYFAGETEWGSLIKRPLIRVPDSANGIMPYASFPSMASEQLMKMMMRPHNNQNVPSFMSEMQQNIVMGNGGLLGDMKMQQPLMMNQKSEMVQPQNKLTVNPSASNTSGQEQNLSQSMSAPAKPENSTLSGCSSGRVQHGLEQSMEQASQVTTSTVCNEEKVNQLLQKPGASSPVQADQCLDITHQIYQPQSDPINGFSFLETDELTSQVSSFQSLAGSYKQPFILSSQDSSAVVLPDSTNSPLFHDVWDTQLNGLKFDQFSPLMQQDLYASQNICMSNSTTSNILDPPLSNTVLDDFCAIKDTDFQNHPSGCLVGNNNTSFAQDVQSQITSASFADSQAFSRQDFPDNSGGTGTSSSNVDFDDCSLRQNSKGSSWQKIATPRVRTYTKVQKTGSVGRSIDVTSFKDYEELKSAIECMFGLEGLLTHPQSSGWKLVYVDYESDVLLVGDDPWEEFVGCVRCIRILSPTEVQQMSEEGMKLLNSAGINDLKTSVS
binding [2]: binds

B2: ARF8 (effector in protoplasts) (protein, UniProt Q9FGV1 1-811)
chain: MKLSTSGLGQQGHEGEKCLNSELWHACAGPLVSLPSSGSRVVYFPQGHSEQVAATTNKEVDGHIPNYPSLPPQLICQLHNVTMHADVETDEVYAQMTLQPLTPEEQKETFVPIELGIPSKQPSNYFCKTLTASDTSTHGGFSVPRRAAEKVFPPLDYTLQPPAQELIARDLHDVEWKFRHIFRGQPKRHLLTTGWSVFVSAKRLVAGDSVIFIRNEKNQLFLGIRHATRPQTIVPSSVLSSDSMHIGLLAAAAHASATNSCFTVFFHPRASQSEFVIQLSKYIKAVFHTRISVGMRFRMLFETEESSVRRYMGTITGISDLDSVRWPNSHWRSVKVGWDESTAGERQPRVSLWEIEPLTTFPMYPSLFPLRLKRPWHAGTSSLPDGRGDLGSGLTWLRGGGGEQQGLLPLNYPSVGLFPWMQQRLDLSQMGTDNNQQYQAMLAAGLQNIGGGDPLRQQFVQLQEPHHQYLQQSASHNSDLMLQQQQQQQASRHLMHAQTQIMSENLPQQNMRQEVSNQPAGQQQQLQQPDQNAYLNAFKMQNGHLQQWQQQSEMPSPSFMKSDFTDSSNKFATTASPASGDGNLLNFSITGQSVLPEQLTTEGWSPKASNTFSEPLSLPQAYPGKSLALEPGNPQNPSLFGVDPDSGLFLPSTVPRFASSSGDAEASPMSLTDSGFQNSLYSCMQDTTHELLHGAGQINSSNQTKNFVKVYKSGSVGRSLDISRFSSYHELREELGKMFAIEGLLEDPLRSGWQLVFVDKENDILLLGDDPWESFVNNVWYIKILSPEDVHQMGDHGEGSGGLFPQNPTHL
binding [2]: no binding

B3: ARF6 (effector in protoplasts) (protein, UniProt Q9ZTX8 1-935)
chain: MRLSSAGFNPQPHEVTGEKRVLNSELWHACAGPLVSLPPVGSRVVYFPQGHSEQVAASTNKEVDAHIPNYPSLHPQLICQLHNVTMHADVETDEVYAQMTLQPLNAQEQKDPYLPAELGVPSRQPTNYFCKTLTASDTSTHGGFSVPRRAAEKVFPPLDYSQQPPAQELMARDLHDNEWKFRHIFRGQPKRHLLTTGWSVFVSAKRLVAGDSVLFIWNDKNQLLLGIRRANRPQTVMPSSVLSSDSMHLGLLAAAAHAAATNSRFTIFYNPRASPSEFVIPLAKYVKAVYHTRVSVGMRFRMLFETEESSVRRYMGTITGICDLDPTRWANSHWRSVKVGWDESTAGERQPRVSLWEIEPLTTFPMYPSPFPLRLKRPWPPGLPSFHGLKEDDMGMSMSSPLMWDRGLQSLNFQGMGVNPWMQPRLDTSGLLGMQNDVYQAMAAAALQDMRGIDPAKAAASLLQFQNSPGFSMQSPSLVQPQMLQQQLSQQQQQLSQQQQQQQQLSQQQQQQLSQQQQQQLSQQQQQQLSQQQQQQAYLGVPETHQPQSQAQSQSNNHLSQQQQQVVDNHNPSASSAAVVSAMSQFGSASQPNTSPLQSMTSLCHQQSFSDTNGGNNPISPLHTLLSNFSQDESSQLLHLTRTNSAMTSSGWPSKRPAVDSSFQHSGAGNNNTQSVLEQLGQSHTSNVPPNAVSLPPFPGGRECSIEQEGSASDPHSHLLFGVNIDSSSLLMPNGMSNLRSIGIEGGDSTTLPFTSSNFNNDFSGNLAMTTPSSCIDESGFLQSSENLGSENPQSNTFVKVYKSGSFGRSLDISKFSSYHELRSELARMFGLEGQLEDPVRSGWQLVFVDRENDVLLLGDDPWPEFVSSVWCIKILSPQEVQQMGKRGLELLNSAPSSNNVDKLPSNGNCDDFGNRSDPRNLGNGIASVGGSFNY
binding [2]: no binding

B4: ARF19 (effector in protoplasts) (protein, UniProt Q8RYC8 1-1086)
chain: MKAPSNGFLPSSNEGEKKPINSQLWHACAGPLVSLPPVGSLVVYFPQGHSEQVAASMQKQTDFIPNYPNLPSKLICLLHSVTLHADTETDEVYAQMTLQPVNKYDREALLASDMGLKLNRQPTEFFCKTLTASDTSTHGGFSVPRRAAEKIFPPLDFSMQPPAQEIVAKDLHDTTWTFRHIYRGQPKRHLLTTGWSVFVSTKRLFAGDSVLFVRDEKSQLMLGIRRANRQTPTLSSSVISSDSMHIGILAAAAHANANSSPFTIFFNPRASPSEFVVPLAKYNKALYAQVSLGMRFRMMFETEDCGVRRYMGTVTGISDLDPVRWKGSQWRNLQVGWDESTAGDRPSRVSIWEIEPVITPFYICPPPFFRPKYPRQPGMPDDELDMENAFKRAMPWMGEDFGMKDAQSSMFPGLSLVQWMSMQQNNPLSGSATPQLPSALSSFNLPNNFASNDPSKLLNFQSPNLSSANSQFNKPNTVNHISQQMQAQPAMVKSQQQQQQQQQQHQHQQQQLQQQQQLQMSQQQVQQQGIYNNGTIAVANQVSCQSPNQPTGFSQSQLQQQSMLPTGAKMTHQNINSMGNKGLSQMTSFAQEMQFQQQLEMHNSSQLLRNQQEQSSLHSLQQNLSQNPQQLQMQQQSSKPSPSQQLQLQLLQKLQQQQQQQSIPPVSSSLQPQLSALQQTQSHQLQQLLSSQNQQPLAHGNNSFPASTFMQPPQIQVSPQQQGQMSNKNLVAAGRSHSGHTDGEAPSCSTSPSANNTGHDNVSPTNFLSRNQQQGQAASVSASDSVFERASNPVQELYTKTESRISQGMMNMKSAGEHFRFKSAVTDQIDVSTAGTTYCPDVVGPVQQQQTFPLPSFGFDGDCQSHHPRNNLAFPGNLEAVTSDPLYSQKDFQNLVPNYGNTPRDIETELSSAAISSQSFGIPSIPFKPGCSNEVGGINDSGIMNGGGLWPNQTQRMRTYTKVQKRGSVGRSIDVTRYSGYDELRHDLARMFGIEGQLEDPLTSDWKLVYTDHENDILLVGDDPWEEFVNCVQNIKILSSVEVQQMSLDGDLAAIPTTNQACSETDSGNAWKVHYEDTSAAASFNR
binding [2]: no binding
